# Measurements from the supplement of paper PMC8728848.
# This is one part of the list.
# Columns and labels:
# Experiment in all cases: glycan array binding signal (z-score within array); higher = stronger binding
# Details in all cases: glycan notation: IUPAC condensed, linker removed; mutation: R201A
# Gal(a1-3)Gal(b1-4)GlcNAc = biological target: Gal(a1-3)Gal(b1-4)GlcNAc
# Procedure, shortened: (§1)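 Arrays were curated from the Consortium for Functional Glycomics database, 3228 in total, and kept only where the protein sequence was available. Binding is expressed as a within-array Z-score. This score was averaged across arrays of the same protein sequence at different concentrations or buffers and across linkers, and negative values can be read as non-binding.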
# [1] = biological target: Gal(a1-3)Gal(b1-4)GlcNAc(b1-2)Man
# Procedure, shortened: as §1
# [2] = biological target: Gal(a1-3)Gal(b1-4)GlcNAc(b1-2)Man(a1-3)[Gal(a1-3)Gal(b1-4)GlcNAc(b1-2)Man(a1-6)]Man(b1-4)GlcNAc(b1-4)GlcNAc
# Procedure, shortened: as §1
# [3] = biological target: Gal(a1-3)Gal(b1-4)GlcNAc(b1-3)GalNAc
# Procedure, shortened: as §1
# [4] = biological target: Gal(a1-3)Gal(b1-4)GlcNAc(b1-6)GalNAc
# Procedure, shortened: as §1
# [5] = biological target: Gal(a1-3)Gal(b1-4)[Fuc(a1-3)]GlcNAc
# Procedure, shortened: as §1
# [6] = biological target: Gal(a1-3)Gal(b1-4)[Fuc(a1-3)]GlcNAc(b1-2)Man(a1-3)[Gal(a1-3)Gal(b1-4)[Fuc(a1-3)]GlcNAc(b1-2)Man(a1-6)]Man(b1-4)GlcNAc(b1-4)GlcNAc
# Procedure, shortened: as §1
# Gal(a1-3)GalNAc = biological target: Gal(a1-3)GalNAc
# Procedure, shortened: as §1
# [7] = biological target: Gal(a1-3)[Gal(a1-4)]Gal(b1-4)GlcNAc
# Procedure, shortened: as §1
# [8] = biological target: Gal(a1-4)Gal(b1-3)GlcNAc(b1-2)Man(a1-3)[Gal(a1-4)Gal(b1-3)GlcNAc(b1-2)Man(a1-6)]Man(b1-4)GlcNAc(b1-4)GlcNAc
# Procedure, shortened: as §1
# Gal(a1-4)Gal(b1-4)Glc = biological target: Gal(a1-4)Gal(b1-4)Glc
# Procedure, shortened: as §1
# Gal(a1-4)Gal(b1-4)GlcNAc = biological target: Gal(a1-4)Gal(b1-4)GlcNAc
# Procedure, shortened: as §1
# [9] = biological target: Gal(a1-4)Gal(b1-4)GlcNAc(b1-2)Man(a1-3)[Gal(a1-4)Gal(b1-4)GlcNAc(b1-2)Man(a1-6)]Man(b1-4)GlcNAc(b1-4)GlcNAc
# Procedure, shortened: as §1
# [10] = biological target: Gal(a1-4)Gal(b1-4)GlcNAc(b1-3)Gal(b1-4)Glc
# Procedure, shortened: as §1
# Gal(a1-4)GlcNAc = biological target: Gal(a1-4)GlcNAc
# Procedure, shortened: as §1
# Gal(a1-6)Glc = biological target: Gal(a1-6)Glc
# Procedure, shortened: as §1
# Gal(b1-2)Gal = biological target: Gal(b1-2)Gal
# Procedure, shortened: as §1
# Gal(b1-3)Gal = biological target: Gal(b1-3)Gal
# Procedure, shortened: as §1
# Gal(b1-3)Gal(b1-4)GlcNAc = biological target: Gal(b1-3)Gal(b1-4)GlcNAc
# Procedure, shortened: as §1
# Gal(b1-3)GalNAc = biological target: Gal(b1-3)GalNAc
# Procedure, shortened: as §1
# [11] = biological target: Gal(b1-3)GalNAc(a1-3)[Fuc(a1-2)]Gal(b1-4)Glc
# Procedure, shortened: as §1
# [12] = biological target: Gal(b1-3)GalNAc(a1-3)[Fuc(a1-2)]Gal(b1-4)GlcNAc
# Procedure, shortened: as §1
# Gal(b1-3)GalNAc(b1-3)Gal = biological target: Gal(b1-3)GalNAc(b1-3)Gal
# Procedure, shortened: as §1
# [13] = biological target: Gal(b1-3)GalNAc(b1-3)Gal(a1-4)Gal(b1-4)Glc
# Procedure, shortened: as §1
# [14] = biological target: Gal(b1-3)GalNAc(b1-4)Gal(b1-4)Glc
# Procedure, shortened: as §1
# [15] = biological target: Gal(b1-3)GalNAc(b1-4)[Neu5Ac(a2-3)]Gal(b1-4)Glc
# Procedure, shortened: as §1
# Gal(b1-3)GlcNAc = biological target: Gal(b1-3)GlcNAc
# Procedure, shortened: as §1
# [16] = biological target: Gal(b1-3)GlcNAc(a1-3)Gal(b1-4)GlcNAc
# Procedure, shortened: as §1
# [17] = biological target: Gal(b1-3)GlcNAc(a1-6)Gal(b1-4)GlcNAc
# Procedure, shortened: as §1
# Gal(b1-3)GlcNAc(b1-2)Man = biological target: Gal(b1-3)GlcNAc(b1-2)Man
# Procedure, shortened: as §1
# [18] = biological target: Gal(b1-3)GlcNAc(b1-2)Man(a1-3)[Gal(b1-3)GlcNAc(b1-2)Man(a1-6)]Man(b1-4)GlcNAc(b1-4)GlcNAc
# Procedure, shortened: as §1
# [19] = biological target: Gal(b1-3)GlcNAc(b1-2)Man(a1-3)[Gal(b1-3)GlcNAc(b1-2)Man(a1-6)]Man(b1-4)GlcNAc(b1-4)[Fuc(a1-6)]GlcNAc
# Procedure, shortened: as §1
# [20] = biological target: Gal(b1-3)GlcNAc(b1-2)Man(a1-3)[GlcNAc(b1-4)][Gal(b1-3)GlcNAc(b1-2)Man(a1-6)]Man(b1-4)GlcNAc(b1-4)GlcNAc
# Procedure, shortened: as §1
# [21] = biological target: Gal(b1-3)GlcNAc(b1-2)[Gal(b1-3)GlcNAc(b1-6)]Man(a1-6)[Gal(b1-3)GlcNAc(b1-2)Man(a1-3)]Man(b1-4)GlcNAc(b1-4)GlcNAc
# Procedure, shortened: as §1
# [22] = biological target: Gal(b1-3)GlcNAc(b1-3)Gal(b1-3)GlcNAc
# Procedure, shortened: as §1
# [23] = biological target: Gal(b1-3)GlcNAc(b1-3)Gal(b1-4)Glc
# Procedure, shortened: as §1
# [24] = biological target: Gal(b1-3)GlcNAc(b1-3)Gal(b1-4)GlcNAc
# Procedure, shortened: as §1
binder,measurement,setting,value
OS9 (Arabidopsis thaliana) (protein) MRGSHHHHHHGMASMTGGQQMGRDLYDDDDKSRLQIFPAHLVGTFSRNNREPKYKIEFLPEDSPFHPGDNLESMVMLDKHGNRFLCYLPKEEKATSGWTSSQQNISTVMMETQQLVKLKTPDELLQPLSEKCLFRQEGWWSYEFCHQKYVRQLHVEDENKIVQEFFLGTFDPEATAAFNQTVSDASTDASQRYHSHVYTNGTTCDLTGSPAEVEVRFVCAETRAMVTSITELSTCKYALTVQCPTLCKHPLFQLEKPVSHTIHCNAIPVEEDATRNKEEQAVDESPKMIADS,glycan array binding signal (z-score),Gal(a1-3)Gal(b1-4)GlcNAc,-0.929
same,glycan array binding signal (z-score),[1],0.372
same,glycan array binding signal (z-score),[2],0.001
same,glycan array binding signal (z-score),[3],-0.927
same,glycan array binding signal (z-score),[4],-0.029
same,glycan array binding signal (z-score),[5],-0.062
same,glycan array binding signal (z-score),[6],0.205
same,glycan array binding signal (z-score),Gal(a1-3)GalNAc,-0.334
same,glycan array binding signal (z-score),[7],-0.09
same,glycan array binding signal (z-score),[8],0.266
same,glycan array binding signal (z-score),Gal(a1-4)Gal(b1-4)Glc,-0.371
same,glycan array binding signal (z-score),Gal(a1-4)Gal(b1-4)GlcNAc,-0.218
same,glycan array binding signal (z-score),[9],-1.07
same,glycan array binding signal (z-score),[10],-0.456
same,glycan array binding signal (z-score),Gal(a1-4)GlcNAc,-0.716
same,glycan array binding signal (z-score),Gal(a1-6)Glc,-0.349
same,glycan array binding signal (z-score),Gal(b1-2)Gal,0.542
same,glycan array binding signal (z-score),Gal(b1-3)Gal,0.546
same,glycan array binding signal (z-score),Gal(b1-3)Gal(b1-4)GlcNAc,-1.16
same,glycan array binding signal (z-score),Gal(b1-3)GalNAc,-0.06
same,glycan array binding signal (z-score),[11],-0.892
same,glycan array binding signal (z-score),[12],0.296
same,glycan array binding signal (z-score),Gal(b1-3)GalNAc(b1-3)Gal,1.42
same,glycan array binding signal (z-score),[13],0.953
same,glycan array binding signal (z-score),[14],-0.298
same,glycan array binding signal (z-score),[15],-0.445
same,glycan array binding signal (z-score),Gal(b1-3)GlcNAc,-0.401
same,glycan array binding signal (z-score),[16],-0.475
same,glycan array binding signal (z-score),[17],-0.716
same,glycan array binding signal (z-score),Gal(b1-3)GlcNAc(b1-2)Man,-1.05
same,glycan array binding signal (z-score),[18],0.135
same,glycan array binding signal (z-score),[19],-0.307
same,glycan array binding signal (z-score),[20],-0.686
same,glycan array binding signal (z-score),[21],-0.677
same,glycan array binding signal (z-score),[22],0.816
same,glycan array binding signal (z-score),[23],-0.193
same,glycan array binding signal (z-score),[24],-0.807

# Exported with bars between the fields: part of the list above.
binder | measurement | setting | value
OS9 (Arabidopsis thaliana) (protein) MRGSHHHHHHGMASMTGGQQMGRDLYDDDDKSRLQIFPAHLVGTFSRNNREPKYKIEFLPEDSPFHPGDNLESMVMLDKHGNRFLCYLPKEEKATSGWTSSQQNISTVMMETQQLVKLKTPDELLQPLSEKCLFRQEGWWSYEFCHQKYVRQLHVEDENKIVQEFFLGTFDPEATAAFNQTVSDASTDASQRYHSHVYTNGTTCDLTGSPAEVEVRFVCAETRAMVTSITELSTCKYALTVQCPTLCKHPLFQLEKPVSHTIHCNAIPVEEDATRNKEEQAVDESPKMIADS | glycan array binding signal (z-score) | [5] | -0.062
same | glycan array binding signal (z-score) | [8] | 0.266
